doi:10.1101/2020.02.03.932962
No constants are given. Whether binding was seen depends on the method and setting. Binding seen in cells or lysates may run through a third protein. Binding calls can cover weak binding; strength is not graded here.

Protein sequences, listed by entry. Tags and fused reporters are not part of them.
UniProt Q15672: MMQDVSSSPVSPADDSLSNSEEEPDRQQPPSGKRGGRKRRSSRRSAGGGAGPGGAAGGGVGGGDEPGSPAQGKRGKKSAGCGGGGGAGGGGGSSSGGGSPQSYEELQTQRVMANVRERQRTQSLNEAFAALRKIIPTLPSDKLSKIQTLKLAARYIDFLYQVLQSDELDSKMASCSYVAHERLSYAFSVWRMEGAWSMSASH
UniProt O95863: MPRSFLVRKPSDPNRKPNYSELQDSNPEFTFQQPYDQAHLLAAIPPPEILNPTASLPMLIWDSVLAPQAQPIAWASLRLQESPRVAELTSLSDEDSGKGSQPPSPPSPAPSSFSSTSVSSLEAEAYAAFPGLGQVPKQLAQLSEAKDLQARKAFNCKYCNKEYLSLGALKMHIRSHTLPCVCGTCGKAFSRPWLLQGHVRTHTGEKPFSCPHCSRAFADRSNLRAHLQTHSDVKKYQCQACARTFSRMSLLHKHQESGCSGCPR

Biological target: GST-Twist-WR domain (UniProt Q15672)
Assay: pull-down

binding	Substance
binds	Snail-C-Flag (from UniProt O95863 1-264)
binds	Twist (endogenous, Sum1315 cells) (from UniProt Q15672 1-202)
binds	Snail (endogenous, Sum1315 cells) (from UniProt O95863 1-264)
